No constants are given. Whether binding was seen depends on the method and setting. Some binding calls cover weakened binding; strength is not graded here.
Assays:
[1] = molecular target: antigen of the thermal stability ELISA (CTLA4; construct not stated) (UniProt P16410); experiment: ELISA after heat treatment (40 C for up to 14 days)
[2] = molecular target: antigen of the thermal stability ELISA (CTLA4; construct not stated) (UniProt P16410); experiment: ELISA on the antigen after treatment at 40 C for 7 days (D7) and 14 days (D14), with the untreated sample (D0) as control
[3] = molecular target: antigen of the thermal stability ELISA (CTLA4; construct not stated) (UniProt P16410); experiment: ELISA on the antigen after treatment for 20 minutes at room temperature, 30, 40, 50 or 60 C
[4] = molecular target: antigen of the thermal stability ELISA (CTLA4; construct not stated) (UniProt P16410); experiment: ELISA after heat treatment (40 C for up to 14 days; temperature gradient for 20 minutes)

Chains of the proteins cited; added tags and fusions are not shown. Residues count along the entry.
UniProt P16410, residues 36-161: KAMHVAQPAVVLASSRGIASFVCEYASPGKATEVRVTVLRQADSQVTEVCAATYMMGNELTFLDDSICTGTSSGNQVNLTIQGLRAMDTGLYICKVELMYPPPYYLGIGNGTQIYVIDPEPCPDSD

B1: Chimeric antibody (antibody, V domains shown)
VH: QVHLQQSGDVLVKPGASVNLSCKASGYTFTSYWINWIKQRPGQGLEWIGRIAPGSGTTYYNEMFTGKATLTVVTSSTTAYIQLSSLSFEDSAVYFCARGDYFDYWDQGTTLTVSS
VL: QIVLTQSPAIMSASPGGKVTITCSASKSVSYIHWFQQKPGTSPKLLIYDTSTLASGVPPRFSGSGSGPSYSLTISRMEAEDAATYYCQQRTTYPLTFGGGTKLEVR
notes: also called Chimeric IgG
In the case of B1, the binding [1] is reported as “binds” and the binding [2] is reported as “binds”.

B2: AH01674 humanized anti-human CTLA4 monoclonal antibody (human IgG1/kappa) (antibody, V domains shown)
VH: QVQLVQSGAEVKKPGASVKVSCKASGYTFTSYWINWVRQAPGQGLEWMGRIAPGSGTTYYNEMFTGRVTMTRDTSTSTAYMELSSLRSEDTAVYYCARGDYFDYWGQGTMVTVSS
VL: DIQLTQSPSFLSASVGDRVTITCSASKSVSYIHWYQQKPGKAPKLLIYDTSTLASGVPPRFSGSGSGPEFTLTISSLQPEDFATYYCQQRTTYPLTFGQGTKLEIK
notes: also called AH1674
For B2, the binding [3] was “binds”, the binding [2] was “binds” and the binding [4] was “binds”.

— patent US20210301021A1 (NANJING GENSCRIPT BIOTECH, published 2021)
